The list shows a part of the results.
Compound: Cc1cc(ccc1-c1ccccc1)C(=O)N1CCCN(CC1)C(=O)CCl [compound 10]
Assay: probe-labelled cysteine peptide fold change vs DMSO (competition) (log2 fold change); higher = less target engagement (more negative = stronger competition)
Conditions: 50 µM; THP-1; incubation time: 4 h
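Further: competitive profiling in live THP-1 cells: cysteine peptides tagged with an iodoacetamide desthiobiotin (IA-DTB) probe, intensity after compound treatment relative to DMSO-treated cells.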

The chains behind the UniProt entries cited, without tags or fusion partners. Where a name states a change or a piece, a line headed by the entry shows the natural chain unless it says otherwise.
UniProt Q9HAS0: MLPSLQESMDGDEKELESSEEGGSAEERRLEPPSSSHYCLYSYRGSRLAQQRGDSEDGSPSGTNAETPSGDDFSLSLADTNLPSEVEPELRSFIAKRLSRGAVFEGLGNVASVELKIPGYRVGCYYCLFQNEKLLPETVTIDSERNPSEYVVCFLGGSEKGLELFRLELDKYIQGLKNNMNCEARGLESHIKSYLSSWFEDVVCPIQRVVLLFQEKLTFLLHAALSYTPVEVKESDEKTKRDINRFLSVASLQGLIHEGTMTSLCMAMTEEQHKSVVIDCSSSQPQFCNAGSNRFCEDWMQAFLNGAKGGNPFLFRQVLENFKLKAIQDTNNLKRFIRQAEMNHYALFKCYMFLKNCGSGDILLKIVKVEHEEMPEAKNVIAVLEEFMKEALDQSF
UniProt O43684, whole entry, looked up: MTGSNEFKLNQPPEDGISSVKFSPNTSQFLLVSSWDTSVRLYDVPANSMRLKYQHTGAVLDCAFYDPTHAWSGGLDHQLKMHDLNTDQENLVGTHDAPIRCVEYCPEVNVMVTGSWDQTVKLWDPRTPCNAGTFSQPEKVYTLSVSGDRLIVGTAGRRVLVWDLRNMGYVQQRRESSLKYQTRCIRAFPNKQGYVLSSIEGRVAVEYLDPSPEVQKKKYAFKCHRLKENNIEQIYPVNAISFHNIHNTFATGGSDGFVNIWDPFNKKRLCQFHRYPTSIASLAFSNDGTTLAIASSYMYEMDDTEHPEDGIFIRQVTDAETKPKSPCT
UniProt O00478: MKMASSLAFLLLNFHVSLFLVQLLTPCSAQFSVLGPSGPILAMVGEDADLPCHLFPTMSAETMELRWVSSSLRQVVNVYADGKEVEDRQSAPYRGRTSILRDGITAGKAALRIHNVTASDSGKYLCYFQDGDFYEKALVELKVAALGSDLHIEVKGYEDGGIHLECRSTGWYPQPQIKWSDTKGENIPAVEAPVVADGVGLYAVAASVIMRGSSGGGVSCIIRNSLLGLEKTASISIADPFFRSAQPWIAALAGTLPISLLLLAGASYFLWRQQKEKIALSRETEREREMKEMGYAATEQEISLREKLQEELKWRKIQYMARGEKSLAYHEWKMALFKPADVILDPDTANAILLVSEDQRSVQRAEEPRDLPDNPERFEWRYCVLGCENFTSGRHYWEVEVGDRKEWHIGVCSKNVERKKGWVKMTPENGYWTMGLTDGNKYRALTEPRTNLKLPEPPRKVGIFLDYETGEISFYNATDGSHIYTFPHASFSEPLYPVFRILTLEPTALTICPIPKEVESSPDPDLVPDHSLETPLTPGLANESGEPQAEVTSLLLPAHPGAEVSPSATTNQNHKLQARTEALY
UniProt Q86VP6: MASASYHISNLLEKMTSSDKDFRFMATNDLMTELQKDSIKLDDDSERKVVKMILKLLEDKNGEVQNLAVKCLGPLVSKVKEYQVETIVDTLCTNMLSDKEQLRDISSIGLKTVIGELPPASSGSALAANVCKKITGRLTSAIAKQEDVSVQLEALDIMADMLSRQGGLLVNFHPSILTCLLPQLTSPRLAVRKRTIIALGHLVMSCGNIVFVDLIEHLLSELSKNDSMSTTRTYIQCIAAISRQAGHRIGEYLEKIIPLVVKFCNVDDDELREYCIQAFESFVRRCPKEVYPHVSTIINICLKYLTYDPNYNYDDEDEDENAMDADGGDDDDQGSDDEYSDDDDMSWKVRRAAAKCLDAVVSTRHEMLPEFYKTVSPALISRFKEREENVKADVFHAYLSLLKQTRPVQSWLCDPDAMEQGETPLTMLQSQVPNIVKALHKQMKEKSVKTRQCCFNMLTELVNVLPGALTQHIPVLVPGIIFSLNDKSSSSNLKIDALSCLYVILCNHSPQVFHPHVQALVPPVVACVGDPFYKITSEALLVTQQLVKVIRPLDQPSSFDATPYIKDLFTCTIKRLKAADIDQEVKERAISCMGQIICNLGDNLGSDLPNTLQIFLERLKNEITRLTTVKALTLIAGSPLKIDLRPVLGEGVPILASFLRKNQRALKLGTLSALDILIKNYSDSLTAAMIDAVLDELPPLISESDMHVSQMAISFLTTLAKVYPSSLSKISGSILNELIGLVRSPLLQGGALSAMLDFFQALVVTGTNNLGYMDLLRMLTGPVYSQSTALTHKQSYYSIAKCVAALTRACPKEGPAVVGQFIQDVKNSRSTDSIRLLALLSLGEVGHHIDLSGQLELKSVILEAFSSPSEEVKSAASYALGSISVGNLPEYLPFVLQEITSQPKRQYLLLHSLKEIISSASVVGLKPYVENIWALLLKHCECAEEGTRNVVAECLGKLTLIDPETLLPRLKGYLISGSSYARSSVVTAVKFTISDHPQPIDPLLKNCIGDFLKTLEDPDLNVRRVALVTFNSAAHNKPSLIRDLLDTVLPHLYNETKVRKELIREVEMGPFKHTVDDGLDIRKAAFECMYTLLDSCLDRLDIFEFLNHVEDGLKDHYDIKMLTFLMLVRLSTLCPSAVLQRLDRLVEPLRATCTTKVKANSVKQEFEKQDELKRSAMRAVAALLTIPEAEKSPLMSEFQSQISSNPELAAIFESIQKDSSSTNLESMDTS
UniProt Q14201: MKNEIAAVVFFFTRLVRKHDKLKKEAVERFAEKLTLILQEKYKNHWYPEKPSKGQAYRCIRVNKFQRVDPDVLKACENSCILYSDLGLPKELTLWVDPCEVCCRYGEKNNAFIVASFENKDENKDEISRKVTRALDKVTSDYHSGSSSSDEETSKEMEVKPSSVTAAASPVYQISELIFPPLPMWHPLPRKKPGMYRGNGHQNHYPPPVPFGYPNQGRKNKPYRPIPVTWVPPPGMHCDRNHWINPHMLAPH
UniProt Q96NL8: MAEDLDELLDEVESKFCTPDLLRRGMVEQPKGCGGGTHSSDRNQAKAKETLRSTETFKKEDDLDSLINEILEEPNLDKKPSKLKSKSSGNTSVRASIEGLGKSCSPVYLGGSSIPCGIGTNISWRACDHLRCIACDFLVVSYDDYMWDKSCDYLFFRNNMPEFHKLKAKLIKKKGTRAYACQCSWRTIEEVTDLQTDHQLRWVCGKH
UniProt Q07021: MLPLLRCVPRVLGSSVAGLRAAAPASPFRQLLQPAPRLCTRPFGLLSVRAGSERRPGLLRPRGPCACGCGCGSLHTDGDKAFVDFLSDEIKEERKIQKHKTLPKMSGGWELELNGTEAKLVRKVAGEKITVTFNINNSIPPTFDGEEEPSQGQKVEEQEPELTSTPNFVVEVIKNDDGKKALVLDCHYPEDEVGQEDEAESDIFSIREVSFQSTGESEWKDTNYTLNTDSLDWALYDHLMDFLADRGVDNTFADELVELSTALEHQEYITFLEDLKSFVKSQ
UniProt Q10588: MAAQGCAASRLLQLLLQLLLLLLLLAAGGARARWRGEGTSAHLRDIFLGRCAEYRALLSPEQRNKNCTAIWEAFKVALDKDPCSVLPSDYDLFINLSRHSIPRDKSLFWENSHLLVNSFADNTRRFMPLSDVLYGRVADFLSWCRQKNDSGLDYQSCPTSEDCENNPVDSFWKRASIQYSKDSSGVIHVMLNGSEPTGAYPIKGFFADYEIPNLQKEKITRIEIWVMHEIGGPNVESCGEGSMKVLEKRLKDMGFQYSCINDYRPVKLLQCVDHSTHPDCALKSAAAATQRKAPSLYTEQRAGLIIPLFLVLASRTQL
UniProt Q5T5Y3: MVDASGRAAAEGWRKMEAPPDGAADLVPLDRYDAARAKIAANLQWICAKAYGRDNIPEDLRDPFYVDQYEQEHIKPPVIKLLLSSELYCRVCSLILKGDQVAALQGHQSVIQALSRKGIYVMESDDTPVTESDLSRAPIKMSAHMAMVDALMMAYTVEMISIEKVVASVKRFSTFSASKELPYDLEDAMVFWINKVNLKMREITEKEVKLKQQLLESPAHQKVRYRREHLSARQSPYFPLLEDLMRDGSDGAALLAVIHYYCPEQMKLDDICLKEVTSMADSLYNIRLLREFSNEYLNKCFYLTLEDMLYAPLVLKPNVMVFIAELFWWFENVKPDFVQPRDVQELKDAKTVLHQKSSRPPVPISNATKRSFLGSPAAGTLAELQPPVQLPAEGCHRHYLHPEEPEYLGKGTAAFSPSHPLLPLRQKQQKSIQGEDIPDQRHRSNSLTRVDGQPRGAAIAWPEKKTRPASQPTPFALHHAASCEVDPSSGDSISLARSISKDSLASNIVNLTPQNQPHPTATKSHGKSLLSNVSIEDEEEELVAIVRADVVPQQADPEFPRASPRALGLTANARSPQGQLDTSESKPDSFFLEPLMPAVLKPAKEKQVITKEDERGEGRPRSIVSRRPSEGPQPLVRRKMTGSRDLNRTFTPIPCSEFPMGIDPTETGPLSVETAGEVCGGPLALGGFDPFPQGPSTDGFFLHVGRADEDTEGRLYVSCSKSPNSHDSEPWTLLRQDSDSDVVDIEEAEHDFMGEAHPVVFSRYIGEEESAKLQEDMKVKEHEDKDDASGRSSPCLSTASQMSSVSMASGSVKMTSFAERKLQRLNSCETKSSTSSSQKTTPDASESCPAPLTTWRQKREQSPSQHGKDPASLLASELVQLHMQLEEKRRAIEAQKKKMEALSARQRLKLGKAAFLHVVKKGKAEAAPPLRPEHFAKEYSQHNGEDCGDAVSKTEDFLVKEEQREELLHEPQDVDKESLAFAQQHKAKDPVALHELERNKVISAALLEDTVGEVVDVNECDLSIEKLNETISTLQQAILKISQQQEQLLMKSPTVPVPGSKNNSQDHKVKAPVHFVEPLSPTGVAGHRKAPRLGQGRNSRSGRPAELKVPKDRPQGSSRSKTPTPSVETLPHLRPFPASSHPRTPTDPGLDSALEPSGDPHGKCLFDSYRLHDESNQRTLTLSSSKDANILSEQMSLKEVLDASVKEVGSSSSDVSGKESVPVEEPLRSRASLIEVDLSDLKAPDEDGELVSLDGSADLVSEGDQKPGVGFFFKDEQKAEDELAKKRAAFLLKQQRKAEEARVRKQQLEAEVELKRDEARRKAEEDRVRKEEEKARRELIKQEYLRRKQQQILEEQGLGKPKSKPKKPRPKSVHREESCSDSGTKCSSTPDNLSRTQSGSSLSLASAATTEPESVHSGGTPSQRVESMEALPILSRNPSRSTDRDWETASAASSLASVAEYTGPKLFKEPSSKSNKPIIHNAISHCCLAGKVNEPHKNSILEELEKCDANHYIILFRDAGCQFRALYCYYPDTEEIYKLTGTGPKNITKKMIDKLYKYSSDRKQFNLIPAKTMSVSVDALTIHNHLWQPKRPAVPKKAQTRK
UniProt Q9NWV4: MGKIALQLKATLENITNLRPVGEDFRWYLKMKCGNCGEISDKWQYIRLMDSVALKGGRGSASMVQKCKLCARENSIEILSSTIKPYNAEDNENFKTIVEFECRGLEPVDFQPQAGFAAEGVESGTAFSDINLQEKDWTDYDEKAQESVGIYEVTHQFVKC
UniProt Q8TDN6: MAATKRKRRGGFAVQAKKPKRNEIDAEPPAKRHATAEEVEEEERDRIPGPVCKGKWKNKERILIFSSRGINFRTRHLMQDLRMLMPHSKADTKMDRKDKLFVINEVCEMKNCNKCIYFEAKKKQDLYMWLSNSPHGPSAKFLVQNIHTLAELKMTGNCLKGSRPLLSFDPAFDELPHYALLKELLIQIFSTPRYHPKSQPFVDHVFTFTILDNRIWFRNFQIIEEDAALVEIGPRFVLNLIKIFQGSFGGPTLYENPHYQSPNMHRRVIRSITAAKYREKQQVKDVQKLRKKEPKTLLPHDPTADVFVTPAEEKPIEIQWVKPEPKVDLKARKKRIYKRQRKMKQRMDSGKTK
UniProt Q9BSF8: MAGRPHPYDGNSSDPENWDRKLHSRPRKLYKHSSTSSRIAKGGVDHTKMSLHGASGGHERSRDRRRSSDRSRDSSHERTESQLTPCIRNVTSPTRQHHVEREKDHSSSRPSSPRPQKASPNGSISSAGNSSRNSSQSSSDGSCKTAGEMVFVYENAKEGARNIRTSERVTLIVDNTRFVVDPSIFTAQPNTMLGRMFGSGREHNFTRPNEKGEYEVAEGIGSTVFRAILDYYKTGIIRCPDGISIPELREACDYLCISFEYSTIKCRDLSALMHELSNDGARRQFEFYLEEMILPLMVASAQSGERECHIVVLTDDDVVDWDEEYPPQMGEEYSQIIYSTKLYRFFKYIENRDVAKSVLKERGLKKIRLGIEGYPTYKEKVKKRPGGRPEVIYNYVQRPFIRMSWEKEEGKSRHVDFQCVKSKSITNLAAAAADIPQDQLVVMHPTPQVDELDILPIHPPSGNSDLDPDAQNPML
UniProt Q14012: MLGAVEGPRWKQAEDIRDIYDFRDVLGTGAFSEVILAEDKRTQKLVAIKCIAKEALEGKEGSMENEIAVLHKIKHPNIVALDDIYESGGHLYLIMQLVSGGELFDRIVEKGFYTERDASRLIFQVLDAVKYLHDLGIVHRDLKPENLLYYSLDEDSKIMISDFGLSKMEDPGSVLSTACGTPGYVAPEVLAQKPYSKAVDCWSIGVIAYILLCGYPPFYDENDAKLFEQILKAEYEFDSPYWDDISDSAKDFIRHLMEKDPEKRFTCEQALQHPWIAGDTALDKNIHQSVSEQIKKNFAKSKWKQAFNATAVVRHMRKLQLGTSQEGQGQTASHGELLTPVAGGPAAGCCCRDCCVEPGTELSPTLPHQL

Target | probe-labelled cysteine peptide fold change
C17orf75_Q9HAS0_296_FCEDWMQAFLNGAK (UniProt Q9HAS0) | 0.513
BUB3_O43684_270_RLCQFHR (UniProt O43684) | 0.317
CALR_P27797_163_CKDDEFTHLYTLIVR (UniProt P27797) | 0.319
BTN3A3_O00478_512_ILTLEPTALTICPIPK (UniProt O00478) | 0.108
CAD_P27708_2161_FGSTQEYEACFGQFILTPHIMTR (UniProt P27708) | 0.111
CAND1_Q86VP6_237_TYIQCIAAISR (UniProt Q86VP6) | 0.119
CAMK2G_Q13555_7_ATTATCTR (UniProt Q13555) | -0.162
BTG3_Q14201_238_NKPYRPIPVTWVPPPGMHCDR (UniProt Q14201) | -0.498
C12orf4_Q9NQ89_350_DFATVCQECTDFHFPR (UniProt Q9NQ89) | 0.0937
C8orf37_Q96NL8_33_GCGGGTHSSDR (UniProt Q96NL8) | -0.297
CAD_P27708_1501_EDFASGTAAALAGGITMVCAMPNTRPPIIDAPALALAQK (UniProt P27708) | 0.195
C12orf10_Q9HB07_62_IGTHNGTFHCDEALACALLR (UniProt Q9HB07) | -0.413
BUB3_O43684_62_YQHTGAVLDCAFYDPTHAWSGGLDHQLK (UniProt O43684) | 0.1
CACYBP_Q9HB71_154_TDTVLILCR (UniProt Q9HB71) | 0.0646
C1QBP_Q07021_186_ALVLDCHYPEDEVGQEDEAESDIFSIR (UniProt Q07021) | 0.565
BST1_Q10588_83_VALDKDPCSVLPSDYDLFINLSR (UniProt Q10588) | -0.386
CAMSAP1_Q5T5Y3_1379_EESCSDSGTK (UniProt Q5T5Y3) | 0.0443
BTN3A3_O00478_166_GYEDGGIHLECR (UniProt O00478) | 0.291
C8orf82_Q6P1X6_107_CEDRPVVFTHLLTADHGPPR (UniProt Q6P1X6) | 0.0534
BRWD3_Q6RI45_202_IFTGSDDCLVK (UniProt Q6RI45) | 0.182

Single entries from above:
In probe-labelled cysteine peptide fold change, BUB3_O43684_270_RLCQFHR (UniProt O43684) reads 0.317
In probe-labelled cysteine peptide fold change, C1QBP_Q07021_186_ALVLDCHYPEDEVGQEDEAESDIFSIR (UniProt Q07021) reads 0.565
In probe-labelled cysteine peptide fold change, CAD_P27708_1501_EDFASGTAAALAGGITMVCAMPNTRPPIIDAPALALAQK (UniProt P27708) reads 0.195

The list goes on.

Target | probe-labelled cysteine peptide fold change
CABIN1_Q9Y6J0_829_LTNNLIQVIDCSMAVQEEAK (UniProt Q9Y6J0) | 0.138
CANX_P27824_360_CESAPGCGVWQR (UniProt P27824) | 0.244
C5orf51_A6NDU8_120+130_HCNLLGDELLECLSWR (UniProt A6NDU8) | -0.774
CAMSAP1_Q5T5Y3_1487_SNKPIIHNAISHCCLAGK (UniProt Q5T5Y3) | -0.526
C1orf123_Q9NWV4_33+36_CGNCGEISDK (UniProt Q9NWV4) | -0.232
C16orf62_Q7Z3J2_925_HGCADTR (UniProt Q7Z3J2) | -0.0505
BRCA1_P38398_1513_WYMHSCSGSLQNR (UniProt P38398) | -0.201
BRIX1_Q8TDN6_158_MTGNCLK (UniProt Q8TDN6) | -0.0278
BUD31_P41223_137+139_IIECTHCGCR (UniProt P41223) | -0.351
BRF1_Q92994_9_GCGGTDIELDAAR (UniProt Q92994) | 0.35
BTK_Q06187_527_NCLVNDQGVVK (UniProt Q06187) | -0.335
C3_P01024_1458_VSHSEDDCLAFK (UniProt P01024) | -0.0967
BTBD10_Q9BSF8_86_TESQLTPCIR (UniProt Q9BSF8) | -1.07
C3orf80_F5H4A9_177_SDPSCASEHEMR (UniProt F5H4A9) | 0.137
CAMLG_P49069_123_GTQLGDKLDSFIKPPECSSDVNLELR (UniProt P49069) | -0.43
BST1_Q10588_238_IEIWVMHEIGGPNVESCGEGSMK (UniProt Q10588) | -0.0502
CAMK1_Q14012_267_RFTCEQALQHPWIAGDTALDK (UniProt Q14012) | -0.104
CAMK1_Q14012_355_DCCVEPGTELSPTLPHQL (UniProt Q14012) | 0.281
CAND1_Q86VP6_92_EYQVETIVDTLCTNMLSDK (UniProt Q86VP6) | 0.396

Reference: the supplement of paper PMC12067093, “Discovery and optimisation of a covalent ligand for TRIM25 and its application to targeted protein ubiquitination” (Chemical Science, 2025)
